In patent US20220281860A1, “COMPOUNDS AND METHODS OF TREATING RNA-MEDIATED DISEASES” (Arrakis Therapeutics, Inc., priority 2016, published 2022):

Tested on: 41CAG and 17CAG sequences
Experiment: NMR epitope mapping (STD)
Format: binding
Conditions: both RNA constructs 41CAG and 17CAG; preliminary assignments

Structure (SMILES) | Epitope mapping (scaled STD effect): protons in closer proximity to RNA
O=C(c1ccc(Cl)cc1)N1CCN(c2ccc([N+](=O)[O-])c3ncccc23)CC1 [CPNQ] | protons of the chlorophenyl moiety are in closer proximity to RNA than the nitroquinoline
Cc1nn(-c2ccccc2)nc1CN [HP-AC008001-E02] | aromatic protons closest to the heterocycle are in closer proximity to RNA protons
OCc1cccc(-c2cccnc2)c1 [HP-AC008002-E01] | protons of the pyridine ring are in closer proximity to RNA than the benzene ring
CC(O)CNCc1ccc(-c2ccccc2)o1 (stereo not shown) [HP-AT005003-C03] | protons of the furan moiety are in closer proximity to RNA protons than the phenyl
